Source: PubChem BioAssay AID260 (DTP/NCI, 2004)
Several values for one entry are separate records, joined by “and”; a condition that tells them apart may be missing. Equal entries are not always repeated. Inconclusive results and toxic doses are left out. Rule for the calls: active = survival T/C of 150% or more; inactive = T/C below 125% in these data.

Tested on: CD2F1 mice, intracerebral L1210 leukemia, survival T/C
Assay: NCI In Vivo Anticancer Drug Screen. Data for tumor model L1210 Leukemia (intracerebral) in CD2F1 (CDF1) mice
Conditions: endpoint: median survival time, schedule: Q01DX005 (ip), vehicle: Klucel (hydroxypropylcellulose) (HPC), higher = longer survival
Procedure: The antitumor activity of compounds was measured in mice bearing transplantable tumors. Survival or tumor size were measured and the results are expressed as the measurement made in the treated group (T) divided by the measurement made in the vehicle treated control group (C). The tumor model used in this assay is L1210 Leukemia (intracerebral) in CD2F1 (CDF1) mice

Measured: T/C

COc1cc2c(c(OC)c1OC)-c1ccc(OC)c(=O)cc1[C@@H](N)CC2
inactive: dose: 4.0 mg/kg/injection 119 % of control and 108 % of control | dose: 8.0 mg/kg/injection 120 % of control and 109 % of control | dose: 16.0 mg/kg/injection 120 % of control
